The values that follow come from article PMC7419011.

No constants are given. Whether binding was seen depends on the method and setting. A result given as binding can be weak or reduced; the word gives no strength. Where a sequence is shown, tags or fusion partners need not be part of it. For part of these data: Binding seen in cells or lysates may run through a third protein.

Test [1] concerns the target T1, TGB1-YFPc (TGB1 fused with the C-terminal half of YFP, 35S promoter) (Barley stripe mosaic virus) (UniProt P04867).
T1 sequence: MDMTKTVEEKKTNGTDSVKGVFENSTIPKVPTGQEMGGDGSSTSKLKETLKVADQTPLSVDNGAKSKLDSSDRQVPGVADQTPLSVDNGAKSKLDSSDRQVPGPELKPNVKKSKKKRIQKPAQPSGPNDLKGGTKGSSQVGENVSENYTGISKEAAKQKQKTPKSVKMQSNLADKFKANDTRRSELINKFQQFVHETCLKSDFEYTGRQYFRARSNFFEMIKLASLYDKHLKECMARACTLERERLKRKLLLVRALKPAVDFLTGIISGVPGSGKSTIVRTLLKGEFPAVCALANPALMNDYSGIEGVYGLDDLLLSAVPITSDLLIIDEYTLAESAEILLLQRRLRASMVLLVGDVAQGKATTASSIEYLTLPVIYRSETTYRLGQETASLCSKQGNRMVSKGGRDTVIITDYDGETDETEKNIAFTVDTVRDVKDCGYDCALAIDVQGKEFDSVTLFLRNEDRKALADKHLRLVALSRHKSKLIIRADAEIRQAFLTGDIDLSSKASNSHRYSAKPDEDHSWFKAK
Briefly: split reporter; BiFC, YFPn and YFPc fusions under the 35S promoter co-expressed in N. benthamiana leaves by agroinfiltration, confocal microscopy at 3 dpi.

Test [2] deals with BD-γb (γb fused to the Gal4 DNA binding domain) (Barley stripe mosaic virus). The experiment in a line: two-hybrid; Gal4 AD and BD fusions in Y187 or Gold yeast strains, mated, spotted in 10-fold dilutions on SD/-Trp-Leu and SD/-Trp-Leu-His-Ade (with X-α-Gal), 30°C.
In test [3] the target is GST-γb_(1-85) (Barley stripe mosaic virus). Briefly: pull-down; GST pull-down, 5 μg of GST- and His-tagged proteins in 600 μL binding buffer (50 mM Tris-HCl pH 8.0, 100 mM NaCl, 0.6% Triton X-100) 3 h at 4°C, with or without 10 μg RNase A, washes with 600 mM NaCl, Western blot with anti-His or anti-GST; both purified. On the technique in general: A western blot detects proteins with antibodies after separation by electrophoresis.

In test [4] the target is GST-γb (Barley stripe mosaic virus). Described as above.
Test [5] concerns the target γb-3xFlag (BSMV γb with a C-terminal 3xFlag epitope, expressed from RNAγ_(γb-3xFlag)) (Barley stripe mosaic virus). The experiment in a line: co-IP; extract of BSMV-infected N. benthamiana leaves at 3 dpi (25 mM Tris-HCl pH 7.5, 150 mM NaCl, 0.5% NP40, 0.4% Triton X-100), anti-FLAG beads 3 h at 4°C, Western blot with anti-TGB1 or anti-γb; untagged virus as negative control.

With “γb-YFPn (γb fused with the N-terminal half of YFP, 35S promoter) (Barley stripe mosaic virus)”, in test [1], the binding entry was “binds”.

B1: AD-TGB1 with C-terminal deletion to aa 186 (domain or fragment, UniProt P04867 1-186)
chain: MDMTKTVEEKKTNGTDSVKGVFENSTIPKVPTGQEMGGDGSSTSKLKETLKVADQTPLSVDNGAKSKLDSSDRQVPGVADQTPLSVDNGAKSKLDSSDRQVPGPELKPNVKKSKKKRIQKPAQPSGPNDLKGGTKGSSQVGENVSENYTGISKEAAKQKQKTPKSVKMQSNLADKFKANDTRRSEL
As for B1, the binding result in test [2] is listed as “no binding”.

B2: AD-TGB1 with C-terminal deletion to aa 113 (domain or fragment, UniProt P04867 1-113)
chain: MDMTKTVEEKKTNGTDSVKGVFENSTIPKVPTGQEMGGDGSSTSKLKETLKVADQTPLSVDNGAKSKLDSSDRQVPGVADQTPLSVDNGAKSKLDSSDRQVPGPELKPNVKKS
B2: the binding entry in test [2] is given as “no binding”.

B3: AD-TGB1 with deletion of the N-terminal 105 aa (domain or fragment, UniProt P04867 122-528)
chain: AQPSGPNDLKGGTKGSSQVGENVSENYTGISKEAAKQKQKTPKSVKMQSNLADKFKANDTRRSELINKFQQFVHETCLKSDFEYTGRQYFRARSNFFEMIKLASLYDKHLKECMARACTLERERLKRKLLLVRALKPAVDFLTGIISGVPGSGKSTIVRTLLKGEFPAVCALANPALMNDYSGIEGVYGLDDLLLSAVPITSDLLIIDEYTLAESAEILLLQRRLRASMVLLVGDVAQGKATTASSIEYLTLPVIYRSETTYRLGQETASLCSKQGNRMVSKGGRDTVIITDYDGETDETEKNIAFTVDTVRDVKDCGYDCALAIDVQGKEFDSVTLFLRNEDRKALADKHLRLVALSRHKSKLIIRADAEIRQAFLTGDIDLSSKASNSHRYSAKPDEDHSWFKAK
Consider B3, for which the binding result in test [2] was “no binding”.

B4: AD-TGB1 aa 1–491 (domain or fragment, UniProt P04867 1-491)
chain: MDMTKTVEEKKTNGTDSVKGVFENSTIPKVPTGQEMGGDGSSTSKLKETLKVADQTPLSVDNGAKSKLDSSDRQVPGVADQTPLSVDNGAKSKLDSSDRQVPGPELKPNVKKSKKKRIQKPAQPSGPNDLKGGTKGSSQVGENVSENYTGISKEAAKQKQKTPKSVKMQSNLADKFKANDTRRSELINKFQQFVHETCLKSDFEYTGRQYFRARSNFFEMIKLASLYDKHLKECMARACTLERERLKRKLLLVRALKPAVDFLTGIISGVPGSGKSTIVRTLLKGEFPAVCALANPALMNDYSGIEGVYGLDDLLLSAVPITSDLLIIDEYTLAESAEILLLQRRLRASMVLLVGDVAQGKATTASSIEYLTLPVIYRSETTYRLGQETASLCSKQGNRMVSKGGRDTVIITDYDGETDETEKNIAFTVDTVRDVKDCGYDCALAIDVQGKEFDSVTLFLRNEDRKALADKHLRLVALSRHKSKLIIRADA
As for B4, in test [2], the binding result was “binds”.

B5: TGB1-His (protein, UniProt P04867 1-528)
chain: T1 sequence
For B5, the binding result in test [3] and in test [4] was “binds” in each case.

B6: BSMV TGB1 (untagged, made during BSMV infection) (protein, UniProt P04867 1-528)
chain: T1 sequence
As for B6, the binding entry in test [5] was “binds”.

B7: AD-TGB1 (TGB1 fused to the Gal4 activation domain) (protein, UniProt P04867 1-528)
chain: T1 sequence
As for B7, in test [2], the binding result is listed as “binds”.
